Consider one substance from article PMC11284791.

By UniProt entry, the sequences of proteins in these tests, tags left out.
UniProt P00940: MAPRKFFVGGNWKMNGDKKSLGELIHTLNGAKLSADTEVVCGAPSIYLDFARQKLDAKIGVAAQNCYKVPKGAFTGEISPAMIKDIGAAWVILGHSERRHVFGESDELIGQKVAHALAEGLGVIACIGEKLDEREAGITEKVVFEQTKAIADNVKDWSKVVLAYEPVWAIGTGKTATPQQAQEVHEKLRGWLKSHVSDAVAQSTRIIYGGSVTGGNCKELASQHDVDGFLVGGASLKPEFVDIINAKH

For the assay, the target named is Ribosomal stalk protein L7/L12 (E. coli) (UniProt P0A7K2). Kind of assay: NMR titration; 1H-15N HSQC spectra of [U-15N]-ribosomes upon TPI titration, in vitro, without EF-G; both purified.

Results are given in words; binding and its absence hold for the method and conditions named.

“Triosephosphate isomerase from G. gallus (from UniProt P00940 1-248) (enzyme)”: the binding entry was “no binding”.
